Measurements reported in PubChem BioAssay AID1259254 (NCATS, 2017)

Purpose: 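Genome-wide screen for genes that prevent DNA re-replication in cancer cells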 (primary screen)
System: human HCT116 colorectal cancer cells
Reagents: single siRNA against human genes
Time to read-out: 3 days
Measured: 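Imaged Hoechst DNA stain sorts each cell into a cycle phase by DNA amount; per plate, G2 fraction set to 0% for non-targeting and 100% for GMNN siRNA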
Direction: G2 robust z-score and G2 cells, % of GMNN control: higher = more G2 cells, more excess DNA replication; raw share of cells in G2: higher = larger share of cells with G2 DNA content
Rule for the call: 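Active siRNAs have a G2 robust z of 5 or more median absolute deviations over the median, which in these data means about 38% or higher of GMNN control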
In all, the deposit lists about 59,000 reagents; shown is a part drawn at random. About 1,550 of all reagents (2.6%) count as active. 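G2 share is only a proxy for re-replication; each gene was hit by three separate siRNAs, and active genes were retested.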 The raw values are shown without normalisation. Reagents against one gene are numbered here. Not given: the amount of reagent.

gene symbol | reagent | G2 robust z-score | G2 cells, % of GMNN control | raw share of cells in G2 (%) | activity call
ELOVL7 (ELOVL fatty acid elongase 7) | 1 | 1.63 | 14.4 | 10.4 | inactive
ELOVL7 (ELOVL fatty acid elongase 7) | 2 | 1.76 | 15.3 | 11 | inactive
ELOVL7 (ELOVL fatty acid elongase 7) | 3 | 0.0529 | 3.34 | 3.29 | inactive
VTN (vitronectin) | 1 | -1.53 | -7.79 | 1.91 | inactive
VTN (vitronectin) | 2 | 2.34 | 19.4 | 13.8 | inactive
VTN (vitronectin) | 3 | -0.871 | -3.16 | 3.08 | inactive
SLC25A10 | 1 | 2.46 | 20.2 | 12.2 | inactive
SLC25A10 | 2 | -0.551 | -0.912 | 4.66 | inactive
SLC25A10 | 3 | -0.604 | -1.28 | 3.66 | inactive
SCRG1 (stimulator of chondrogenesis 1) | 1 | 0.801 | 8.6 | 8.36 | inactive
SCRG1 (stimulator of chondrogenesis 1) | 2 | -0.309 | 0.79 | 4.46 | inactive
SCRG1 (stimulator of chondrogenesis 1) | 3 | 0.384 | 5.67 | 5.29 | inactive
LRTM1 (leucine rich repeat transmembrane protein 1) | 1 | -1.08 | -4.6 | 3.74 | inactive
LRTM1 (leucine rich repeat transmembrane protein 1) | 2 | 6.25 | 46.9 | 20.9 | active
LRTM1 (leucine rich repeat transmembrane protein 1) | 3 | 2.47 | 20.3 | 11.6 | inactive
CD28 (CD28 molecule) | 1 | 0.162 | 4.1 | 6.43 | inactive
CD28 (CD28 molecule) | 2 | 0.395 | 5.74 | 6.07 | inactive
CD28 (CD28 molecule) | 3 | 0.345 | 5.39 | 6.96 | inactive
SLC49A4 | 1 | 2.95 | 23.8 | 14.2 | inactive
SLC49A4 | 2 | -0.221 | 1.41 | 3.44 | inactive
SLC49A4 | 3 | 2.39 | 19.8 | 9.19 | inactive
USP9Y (ubiquitin specific peptidase 9 Y-linked) | 1 | 0.129 | 3.88 | 6.91 | inactive
USP9Y (ubiquitin specific peptidase 9 Y-linked) | 2 | -0.21 | 1.49 | 5.43 | inactive
USP9Y (ubiquitin specific peptidase 9 Y-linked) | 3 | -0.416 | 0.038 | 3.92 | inactive
CD320 (CD320 molecule) | 1 | -0.174 | 1.75 | 4.23 | inactive
CD320 (CD320 molecule) | 2 | -0.959 | -3.78 | 2.68 | inactive
CD320 (CD320 molecule) | 3 | 1.18 | 11.3 | 6.92 | inactive
CFHR5 (complement factor H related 5) | 1 | -0.607 | -1.3 | 3.9 | inactive
CFHR5 (complement factor H related 5) | 2 | -0.0499 | 2.62 | 5.45 | inactive
CFHR5 (complement factor H related 5) | 3 | -0.65 | -1.61 | 1.94 | inactive

Entries listed so far whose target name starts with C or c:
gene symbol | reagent | G2 robust z-score | G2 cells, % of GMNN control | raw share of cells in G2 (%) | activity call
CD28 (CD28 molecule) | 1 | 0.162 | 4.1 | 6.43 | inactive
CD28 (CD28 molecule) | 2 | 0.395 | 5.74 | 6.07 | inactive
CD28 (CD28 molecule) | 3 | 0.345 | 5.39 | 6.96 | inactive
CD320 (CD320 molecule) | 1 | -0.174 | 1.75 | 4.23 | inactive
CD320 (CD320 molecule) | 2 | -0.959 | -3.78 | 2.68 | inactive
CD320 (CD320 molecule) | 3 | 1.18 | 11.3 | 6.92 | inactive
CFHR5 (complement factor H related 5) | 1 | -0.607 | -1.3 | 3.9 | inactive
CFHR5 (complement factor H related 5) | 2 | -0.0499 | 2.62 | 5.45 | inactive
CFHR5 (complement factor H related 5) | 3 | -0.65 | -1.61 | 1.94 | inactive

The listing continues:
gene symbol | reagent | G2 robust z-score | G2 cells, % of GMNN control | raw share of cells in G2 (%) | activity call
ISM2 (isthmin 2) | 1 | 1.68 | 14.8 | 8.79 | inactive
ISM2 (isthmin 2) | 2 | -0.462 | -0.28 | 2.83 | inactive
ISM2 (isthmin 2) | 3 | 0.179 | 4.23 | 4.54 | inactive
ZNF799 (zinc finger protein 799) | 1 | 0.9 | 9.3 | 6.29 | inactive
ZNF799 (zinc finger protein 799) | 2 | -0.268 | 1.08 | 3.54 | inactive
ZNF799 (zinc finger protein 799) | 3 | 2.31 | 19.2 | 10.3 | inactive
WLS (Wnt ligand secretion mediator) | 1 | 1.77 | 15.4 | 10.8 | inactive
WLS (Wnt ligand secretion mediator) | 2 | -0.236 | 1.31 | 4.87 | inactive
WLS (Wnt ligand secretion mediator) | 3 | 4.75 | 36.4 | 12.3 | inactive
FAM177A1P1 (family with sequence similarity 177 member A1 pseudogene 1) | 1 | 0.192 | 4.32 | 5.58 | inactive
FAM177A1P1 (family with sequence similarity 177 member A1 pseudogene 1) | 2 | -0.541 | -0.838 | 3.05 | inactive
FAM177A1P1 (family with sequence similarity 177 member A1 pseudogene 1) | 3 | -0.0618 | 2.53 | 4.09 | inactive
TBCK (TBC1 domain containing kinase) | 1 | 4.77 | 36.5 | 18.7 | inactive
TBCK (TBC1 domain containing kinase) | 2 | 4.44 | 34.2 | 13.5 | inactive
TBCK (TBC1 domain containing kinase) | 3 | -0.716 | -2.07 | 1.21 | inactive
ANGPT1 (angiopoietin 1) | 1 | 0.469 | 6.27 | 6.85 | inactive
ANGPT1 (angiopoietin 1) | 2 | -0.745 | -2.28 | 4.26 | inactive
ANGPT1 (angiopoietin 1) | 3 | 3.7 | 29 | 14.8 | inactive
WNT9A (Wnt family member 9A) | 1 | -0.284 | 0.966 | 5.56 | inactive
WNT9A (Wnt family member 9A) | 2 | 2.67 | 21.8 | 12.5 | inactive
WNT9A (Wnt family member 9A) | 3 | -0.0023 | 2.95 | 4.39 | inactive
EOLA2 (endothelium and lymphocyte associated ASCH domain 2) | 1 | -0.744 | -2.27 | 2.77 | inactive
EOLA2 (endothelium and lymphocyte associated ASCH domain 2) | 2 | 1.4 | 12.8 | 7.88 | inactive
EOLA2 (endothelium and lymphocyte associated ASCH domain 2) | 3 | 0.631 | 7.41 | 5.3 | inactive
ADPRHL1 (ADP-ribosylhydrolase like 1) | 1 | 0.197 | 4.36 | 6.13 | inactive
ADPRHL1 (ADP-ribosylhydrolase like 1) | 2 | 3.14 | 25 | 17.3 | inactive
ADPRHL1 (ADP-ribosylhydrolase like 1) | 3 | 0.958 | 9.71 | 9.13 | inactive
MGAM2 (maltase-glucoamylase 2 (putative)) | 1 | 0.613 | 7.28 | 7.01 | inactive
MGAM2 (maltase-glucoamylase 2 (putative)) | 2 | -0.343 | 0.555 | 3.5 | inactive
MGAM2 (maltase-glucoamylase 2 (putative)) | 3 | -0.403 | 0.133 | 1.86 | inactive
CCDC190 (coiled-coil domain containing 190) | 1 | 0.0525 | 3.34 | 5.13 | inactive
CCDC190 (coiled-coil domain containing 190) | 2 | 0.185 | 4.27 | 5.13 | inactive
CCDC190 (coiled-coil domain containing 190) | 3 | -0.364 | 0.406 | 4.35 | inactive
OR11H6 (olfactory receptor family 11 subfamily H member 6) | 1 | -0.674 | -1.78 | 3.38 | inactive
OR11H6 (olfactory receptor family 11 subfamily H member 6) | 2 | -0.939 | -3.64 | 2.25 | inactive
OR11H6 (olfactory receptor family 11 subfamily H member 6) | 3 | -0.657 | -1.66 | 1.33 | inactive
UCP3 (uncoupling protein 3) | 1 | 0.351 | 5.44 | 7.9 | inactive
UCP3 (uncoupling protein 3) | 2 | 5.62 | 42.5 | 18.5 | active
UCP3 (uncoupling protein 3) | 3 | -0.715 | -2.06 | 3.49 | inactive
